According to the supplement of paper PMC6411743:
± gives the standard deviation of the averaged measurements. Only a part is listed here, and it is no random draw.

By UniProt entry, the sequences of proteins in these tests, tags left out. Where a name states a change or a piece, a line headed by the entry shows the natural chain unless it says otherwise.
UniProt Q8NBJ7: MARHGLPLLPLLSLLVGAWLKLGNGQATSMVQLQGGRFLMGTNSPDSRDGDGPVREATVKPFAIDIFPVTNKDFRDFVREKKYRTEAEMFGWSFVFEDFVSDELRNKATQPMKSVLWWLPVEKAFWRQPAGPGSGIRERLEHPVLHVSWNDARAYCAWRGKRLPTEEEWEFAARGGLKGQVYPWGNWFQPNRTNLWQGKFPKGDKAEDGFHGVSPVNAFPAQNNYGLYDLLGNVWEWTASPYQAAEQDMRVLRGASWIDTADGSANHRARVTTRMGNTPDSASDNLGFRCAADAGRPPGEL
UniProt Q5BKY9: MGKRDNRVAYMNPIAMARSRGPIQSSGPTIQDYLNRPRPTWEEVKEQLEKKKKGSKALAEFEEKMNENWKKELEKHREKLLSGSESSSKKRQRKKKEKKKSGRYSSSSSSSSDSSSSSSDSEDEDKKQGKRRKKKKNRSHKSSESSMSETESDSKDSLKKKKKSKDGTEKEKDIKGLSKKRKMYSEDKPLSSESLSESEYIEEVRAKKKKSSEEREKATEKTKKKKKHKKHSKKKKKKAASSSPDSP
UniProt P40763, whole entry: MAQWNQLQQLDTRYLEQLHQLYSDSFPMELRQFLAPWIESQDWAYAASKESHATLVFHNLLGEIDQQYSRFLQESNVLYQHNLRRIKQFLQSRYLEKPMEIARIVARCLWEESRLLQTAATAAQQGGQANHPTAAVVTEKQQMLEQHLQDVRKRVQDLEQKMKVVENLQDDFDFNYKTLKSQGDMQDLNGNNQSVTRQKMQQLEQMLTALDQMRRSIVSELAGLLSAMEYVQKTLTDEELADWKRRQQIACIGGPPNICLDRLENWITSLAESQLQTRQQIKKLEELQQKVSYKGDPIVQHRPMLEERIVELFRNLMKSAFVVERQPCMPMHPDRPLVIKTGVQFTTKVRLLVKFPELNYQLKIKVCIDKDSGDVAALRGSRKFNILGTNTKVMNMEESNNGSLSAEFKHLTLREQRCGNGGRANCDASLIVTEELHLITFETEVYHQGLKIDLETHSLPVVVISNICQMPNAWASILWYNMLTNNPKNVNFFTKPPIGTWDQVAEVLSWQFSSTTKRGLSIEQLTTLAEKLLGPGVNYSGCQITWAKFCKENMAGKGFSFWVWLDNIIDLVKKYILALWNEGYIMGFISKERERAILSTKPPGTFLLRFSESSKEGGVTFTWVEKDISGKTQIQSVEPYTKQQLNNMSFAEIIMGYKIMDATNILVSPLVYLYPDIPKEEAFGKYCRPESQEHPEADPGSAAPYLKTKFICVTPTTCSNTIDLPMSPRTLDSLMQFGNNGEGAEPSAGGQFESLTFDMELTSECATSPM
UniProt Q9UL33, whole entry: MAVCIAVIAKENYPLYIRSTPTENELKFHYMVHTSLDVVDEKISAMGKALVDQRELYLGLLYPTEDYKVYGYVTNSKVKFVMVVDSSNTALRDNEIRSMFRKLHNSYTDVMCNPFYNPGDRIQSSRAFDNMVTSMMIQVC
UniProt Q96MX0: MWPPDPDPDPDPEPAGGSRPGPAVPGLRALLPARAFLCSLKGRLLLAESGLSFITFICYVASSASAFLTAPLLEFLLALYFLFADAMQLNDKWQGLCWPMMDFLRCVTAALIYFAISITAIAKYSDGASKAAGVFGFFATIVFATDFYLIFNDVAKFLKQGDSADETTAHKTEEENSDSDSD
UniProt Q6W2J9: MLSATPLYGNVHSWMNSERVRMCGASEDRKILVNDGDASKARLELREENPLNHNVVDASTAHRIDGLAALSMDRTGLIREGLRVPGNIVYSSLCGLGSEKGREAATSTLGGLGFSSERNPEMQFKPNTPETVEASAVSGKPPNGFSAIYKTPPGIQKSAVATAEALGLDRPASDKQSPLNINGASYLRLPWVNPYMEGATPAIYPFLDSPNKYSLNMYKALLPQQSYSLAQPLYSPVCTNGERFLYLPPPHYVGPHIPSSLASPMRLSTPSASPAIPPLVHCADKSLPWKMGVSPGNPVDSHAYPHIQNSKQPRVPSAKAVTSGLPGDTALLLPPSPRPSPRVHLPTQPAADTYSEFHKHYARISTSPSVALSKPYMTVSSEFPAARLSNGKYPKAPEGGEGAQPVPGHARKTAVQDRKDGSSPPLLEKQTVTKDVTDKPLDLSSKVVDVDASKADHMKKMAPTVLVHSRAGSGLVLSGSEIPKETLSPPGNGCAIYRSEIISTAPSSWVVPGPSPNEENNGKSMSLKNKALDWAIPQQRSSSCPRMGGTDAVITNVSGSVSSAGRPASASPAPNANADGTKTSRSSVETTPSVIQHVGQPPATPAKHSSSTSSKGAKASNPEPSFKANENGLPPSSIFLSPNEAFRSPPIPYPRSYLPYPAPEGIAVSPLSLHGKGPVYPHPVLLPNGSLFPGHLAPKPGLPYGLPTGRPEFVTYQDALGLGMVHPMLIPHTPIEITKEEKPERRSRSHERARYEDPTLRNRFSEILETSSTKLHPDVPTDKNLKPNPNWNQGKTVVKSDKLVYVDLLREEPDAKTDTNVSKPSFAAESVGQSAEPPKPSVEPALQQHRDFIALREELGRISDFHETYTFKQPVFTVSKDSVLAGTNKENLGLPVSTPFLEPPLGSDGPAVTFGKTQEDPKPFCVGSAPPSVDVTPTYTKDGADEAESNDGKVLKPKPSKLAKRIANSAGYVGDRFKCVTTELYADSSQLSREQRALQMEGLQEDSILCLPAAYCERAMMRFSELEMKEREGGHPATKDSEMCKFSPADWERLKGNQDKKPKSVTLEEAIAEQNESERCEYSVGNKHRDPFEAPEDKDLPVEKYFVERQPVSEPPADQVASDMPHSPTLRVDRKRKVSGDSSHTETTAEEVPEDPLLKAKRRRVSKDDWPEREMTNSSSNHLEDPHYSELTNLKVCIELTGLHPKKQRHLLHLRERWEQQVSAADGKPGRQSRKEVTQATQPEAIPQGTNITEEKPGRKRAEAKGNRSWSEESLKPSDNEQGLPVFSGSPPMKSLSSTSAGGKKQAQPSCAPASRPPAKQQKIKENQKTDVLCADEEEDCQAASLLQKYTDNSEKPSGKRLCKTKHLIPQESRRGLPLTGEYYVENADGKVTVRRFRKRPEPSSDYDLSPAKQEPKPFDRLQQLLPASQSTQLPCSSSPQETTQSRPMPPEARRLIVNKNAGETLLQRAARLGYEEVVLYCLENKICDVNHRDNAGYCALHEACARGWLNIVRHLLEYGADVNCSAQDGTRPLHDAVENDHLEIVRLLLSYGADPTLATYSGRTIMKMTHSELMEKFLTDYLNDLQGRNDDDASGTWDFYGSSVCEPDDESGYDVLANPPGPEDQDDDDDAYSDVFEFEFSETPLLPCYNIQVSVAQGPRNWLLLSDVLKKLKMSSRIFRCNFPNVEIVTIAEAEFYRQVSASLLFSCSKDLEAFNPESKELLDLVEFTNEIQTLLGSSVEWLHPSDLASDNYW
UniProt Q9NP61: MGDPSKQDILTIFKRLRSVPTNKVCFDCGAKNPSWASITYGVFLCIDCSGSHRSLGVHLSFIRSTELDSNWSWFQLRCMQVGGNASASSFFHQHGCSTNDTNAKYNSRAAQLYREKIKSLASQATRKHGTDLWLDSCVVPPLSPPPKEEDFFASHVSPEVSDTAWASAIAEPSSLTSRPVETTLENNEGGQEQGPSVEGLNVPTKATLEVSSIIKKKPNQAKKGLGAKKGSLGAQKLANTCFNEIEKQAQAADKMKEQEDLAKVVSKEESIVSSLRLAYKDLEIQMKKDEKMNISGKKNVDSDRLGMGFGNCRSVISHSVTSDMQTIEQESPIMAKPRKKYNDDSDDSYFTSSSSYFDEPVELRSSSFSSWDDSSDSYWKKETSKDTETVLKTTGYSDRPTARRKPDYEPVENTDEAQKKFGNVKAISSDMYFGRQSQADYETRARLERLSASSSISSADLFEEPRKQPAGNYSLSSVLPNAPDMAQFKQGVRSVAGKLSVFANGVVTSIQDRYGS
UniProt Q969X6: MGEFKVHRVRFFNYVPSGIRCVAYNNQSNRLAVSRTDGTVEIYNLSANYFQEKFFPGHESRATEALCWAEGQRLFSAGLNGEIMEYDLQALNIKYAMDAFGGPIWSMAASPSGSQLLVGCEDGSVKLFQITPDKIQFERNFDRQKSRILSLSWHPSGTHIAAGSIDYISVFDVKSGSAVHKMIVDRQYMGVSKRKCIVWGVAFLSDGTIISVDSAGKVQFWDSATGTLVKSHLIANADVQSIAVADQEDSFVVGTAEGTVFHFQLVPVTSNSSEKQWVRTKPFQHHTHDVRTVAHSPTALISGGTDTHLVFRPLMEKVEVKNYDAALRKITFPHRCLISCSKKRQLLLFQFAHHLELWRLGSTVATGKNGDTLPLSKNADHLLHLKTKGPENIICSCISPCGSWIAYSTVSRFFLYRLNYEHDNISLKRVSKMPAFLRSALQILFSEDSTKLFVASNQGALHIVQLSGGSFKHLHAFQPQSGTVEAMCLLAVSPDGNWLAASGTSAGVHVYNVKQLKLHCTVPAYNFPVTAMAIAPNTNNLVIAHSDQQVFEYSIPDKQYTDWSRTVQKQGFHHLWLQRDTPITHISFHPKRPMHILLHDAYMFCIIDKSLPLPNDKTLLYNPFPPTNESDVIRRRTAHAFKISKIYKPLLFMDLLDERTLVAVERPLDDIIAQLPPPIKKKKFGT
UniProt Q9BUR5: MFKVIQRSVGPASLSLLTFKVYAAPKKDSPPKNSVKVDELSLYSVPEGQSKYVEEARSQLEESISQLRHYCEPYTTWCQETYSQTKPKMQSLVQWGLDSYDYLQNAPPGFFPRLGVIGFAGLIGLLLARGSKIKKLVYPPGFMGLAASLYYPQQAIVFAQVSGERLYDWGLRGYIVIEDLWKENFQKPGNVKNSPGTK
UniProt Q9BQE5: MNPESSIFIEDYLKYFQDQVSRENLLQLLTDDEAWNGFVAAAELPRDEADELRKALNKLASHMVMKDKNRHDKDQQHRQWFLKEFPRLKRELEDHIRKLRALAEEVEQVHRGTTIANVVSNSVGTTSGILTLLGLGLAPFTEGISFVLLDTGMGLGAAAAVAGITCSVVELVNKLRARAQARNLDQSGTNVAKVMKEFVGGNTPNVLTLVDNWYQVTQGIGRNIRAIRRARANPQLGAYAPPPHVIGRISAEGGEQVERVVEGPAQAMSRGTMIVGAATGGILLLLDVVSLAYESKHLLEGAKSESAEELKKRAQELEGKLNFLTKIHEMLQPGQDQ
UniProt Q9Y375: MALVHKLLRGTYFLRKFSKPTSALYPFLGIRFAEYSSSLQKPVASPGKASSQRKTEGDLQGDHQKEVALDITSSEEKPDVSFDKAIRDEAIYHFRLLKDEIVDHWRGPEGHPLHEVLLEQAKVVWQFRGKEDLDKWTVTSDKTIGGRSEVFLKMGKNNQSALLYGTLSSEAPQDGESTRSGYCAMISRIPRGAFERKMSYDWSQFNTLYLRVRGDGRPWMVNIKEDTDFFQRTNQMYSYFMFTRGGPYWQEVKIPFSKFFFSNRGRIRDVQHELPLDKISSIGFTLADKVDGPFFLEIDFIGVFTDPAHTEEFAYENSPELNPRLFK
UniProt P46459: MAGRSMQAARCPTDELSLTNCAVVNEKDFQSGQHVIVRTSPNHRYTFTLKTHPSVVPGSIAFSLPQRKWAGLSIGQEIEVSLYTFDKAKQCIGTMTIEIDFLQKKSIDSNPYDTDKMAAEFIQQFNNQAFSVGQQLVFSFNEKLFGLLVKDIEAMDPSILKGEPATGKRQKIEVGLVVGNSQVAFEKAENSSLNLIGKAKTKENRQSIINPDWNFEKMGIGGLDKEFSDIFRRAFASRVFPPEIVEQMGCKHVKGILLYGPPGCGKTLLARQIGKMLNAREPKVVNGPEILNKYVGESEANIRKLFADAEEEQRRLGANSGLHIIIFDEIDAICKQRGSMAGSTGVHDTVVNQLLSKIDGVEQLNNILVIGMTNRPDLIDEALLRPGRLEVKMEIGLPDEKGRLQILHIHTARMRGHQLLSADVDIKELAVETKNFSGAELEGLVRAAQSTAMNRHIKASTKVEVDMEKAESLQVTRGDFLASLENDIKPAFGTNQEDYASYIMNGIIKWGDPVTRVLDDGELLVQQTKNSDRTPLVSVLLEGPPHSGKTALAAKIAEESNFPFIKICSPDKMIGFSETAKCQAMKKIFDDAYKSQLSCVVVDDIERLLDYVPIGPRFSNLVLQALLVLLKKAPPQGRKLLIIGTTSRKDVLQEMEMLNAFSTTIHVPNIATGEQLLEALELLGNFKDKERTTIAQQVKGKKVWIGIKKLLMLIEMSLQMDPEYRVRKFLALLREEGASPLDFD
UniProt Q96GD4, whole entry: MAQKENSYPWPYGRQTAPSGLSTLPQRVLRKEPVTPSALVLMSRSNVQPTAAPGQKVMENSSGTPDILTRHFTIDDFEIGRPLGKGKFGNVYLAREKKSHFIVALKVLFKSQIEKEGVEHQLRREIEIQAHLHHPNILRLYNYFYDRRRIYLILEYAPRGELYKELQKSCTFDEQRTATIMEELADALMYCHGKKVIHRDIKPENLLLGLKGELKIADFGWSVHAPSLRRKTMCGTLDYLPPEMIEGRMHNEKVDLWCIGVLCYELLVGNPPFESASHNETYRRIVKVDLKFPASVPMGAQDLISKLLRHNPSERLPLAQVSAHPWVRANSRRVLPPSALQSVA

Compound: Nc1ncnc2c1ncn2[C@@H]1O[C@H](COP(=O)(O)OP(=O)(O)NP(=O)(O)O)[C@@H](O)[C@H]1O [adenylyl imidodiphosphate]
Assay: NP40-soluble protein abundance relative to vehicle (solubility fold change) (ratio); higher = more soluble protein in presence of AMP-PNP
Method in brief: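 Jurkat crude lysate prepared with a Dounce homogeniser was treated at eight concentrations spanning 0.1 to 10 mM, 10 min at room temperature then 3 min at 37 °C. Solubilisation with 0.8% NP40 and benzonase and ultracentrifugation preceded TMT labelling of the supernatant for LC-MS/MS. Fold change against the detergent-processed vehicle was determined per replicate from vsn-normalised intensities, across three independent experiments.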

| Target | NP40-soluble protein abundance (concentration: 1mM) | NP40-soluble protein abundance (concentration: 2mM) | NP40-soluble protein abundance (concentration: 4mM) | NP40-soluble protein abundance (concentration: 6mM) | NP40-soluble protein abundance (concentration: 8mM) | NP40-soluble protein abundance (concentration: 10mM) |
| --- | --- | --- | --- | --- | --- | --- |
| G5E9V6 and related entries (UniProt Q8IUR7) | 0.968 ± 0.04 | 0.939 ± 0.058 | 0.972 ± 0.061 | 0.945 ± 0.051 | 0.917 ± 0.076 | 0.924 ± 0.074 |
| J3KN10 and related entries (UniProt P42356) | 1.02 ± 0.017 | 1.05 ± 0.058 | 1.03 ± 0.067 | 0.997 ± 0.043 | 1.01 ± 0.016 | 1.04 ± 0.066 |
| J3KQJ1 and related entries (UniProt Q8NBJ7) | 1 ± 0.043 | 1 ± 0.029 | 1.02 ± 0.032 | 1.03 ± 0.05 | 1.02 ± 0.04 | 0.995 ± 0.018 |
| H7C3T3 (UniProt Q9UPV9) | 0.961 ± 0.014 | 0.969 ± 0.018 | 0.945 ± 0.084 | 0.914 ± 0.066 | 0.901 ± 0.022 | 0.87 ± 0.026 |
| G3XAH6 and related entries (UniProt P51003) | 0.998 ± 0.012 | 1.01 ± 0.07 | 1 ± 0.021 | 0.993 ± 0.041 | 0.979 ± 0.053 | 0.972 ± 0.057 |
| H7C1W4 and related entries (UniProt Q93075+H7C1W4) | 1.01 ± 0.013 | 0.9922 ± 0.0029 | 1 ± 0.022 | 0.991 ± 0.016 | 1.0104 ± 0.00041 | 0.9903 ± 0.0013 |
| H0UI80 and related entries (UniProt X6RLT1+Q8IXH7+H0UI80) | 1.01 ± 0.012 | 0.983 ± 0.037 | 1.02 ± 0.023 | 0.926 ± 0.065 | 0.945 ± 0.08 | 0.925 ± 0.043 |
| H3BQW8 and related entries (UniProt Q16775) | 1.01 ± 0.047 | 0.97 ± 0.054 | 1.02 ± 0.071 | 1.04 ± 0.069 | 1.04 ± 0.073 | 1.08 ± 0.13 |
| G3XAI9 and related entries (UniProt Q5BKY9) | 1.01 ± 0.018 | 1.1 ± 0.14 | 1 ± 0.043 | 1.1 ± 0.026 | 1.06 ± 0.037 | 1.09 ± 0.054 |
| G8JLH9 and related entries (UniProt P40763) | 1.02 ± 0.019 | 0.993 ± 0.075 | 1 ± 0.064 | 0.966 ± 0.011 | 0.959 ± 0.042 | 0.955 ± 0.053 |
| H3BP13 and related entries (UniProt Q9UL33) | 0.975 ± 0.037 | 0.965 ± 0.049 | 0.995 ± 0.018 | 1.02 ± 0.065 | 1.02 ± 0.048 | 1.01 ± 0.042 |
| I3L3C2 and related entries (UniProt Q96MX0) | 0.926 ± 0.018 | 0.955 ± 0.056 | 0.937 ± 0.046 | 1 ± 0.072 | 0.978 ± 0.1 | 0.941 ± 0.099 |
| H7BYY2 and related entries (UniProt Q6W2J9) | 0.981 ± 0.062 | 0.993 ± 0.073 | 0.989 ± 0.062 | 0.974 ± 0.052 | 1.02 ± 0.03 | 0.961 ± 0.094 |
| H0YKX3 and related entries (UniProt Q15004) | 0.987 ± 0.021 | 0.984 ± 0.033 | 0.978 ± 0.018 | 0.981 ± 0.021 | 0.965 ± 0.0029 | 0.98 ± 0.019 |
| H3BSM7 and related entries (UniProt Q96GQ5) | 1 ± 0.032 | 0.9753 ± 0.0055 | 1.02 ± 0.054 | 1.06 ± 0.055 | 1.07 ± 0.055 | 1.06 ± 0.019 |
| G8JL98 and related entries (UniProt Q13569) | 0.978 ± 0.029 | 0.9627 ± 0.0029 | 0.944 ± 0.023 | 0.957 ± 0.041 | 0.941 ± 0.0098 | 0.9457 ± 0.0067 |
| H7BYF2 and related entries (UniProt Q9BVL2) | 1.031 ± 0.0089 | 1.1 ± 0.095 | 1.04 ± 0.053 | 1.03 ± 0.033 | 1.04 ± 0.026 | 1.11 ± 0.06 |
| J3KS94 and related entries (UniProt P02686) | 0.968 ± 0.054 | 0.993 ± 0.035 | 0.96 ± 0.03 | 0.928 ± 0.033 | 0.896 ± 0.013 | 0.903 ± 0.029 |
| H0Y362 and related entries (UniProt Q8NEW0) | 0.9891 ± 0.0011 | 0.958 ± 0.011 | 0.976 ± 0.019 | 0.983 ± 0.022 | 0.998 ± 0.016 | 0.9649 ± 0.004 |
| H0Y6A0 and related entries (UniProt Q9NP61) | 0.99 ± 0.037 | 1.01 ± 0.069 | 0.994 ± 0.049 | 0.963 ± 0.03 | 0.961 ± 0.043 | 0.961 ± 0.057 |
| H3BSH7 and related entries (UniProt Q969X6) | 1.02 ± 0.015 | 0.982 ± 0.059 | 1.048 ± 0.0087 | 1.03 ± 0.055 | 1.1 ± 0.035 | 1.08 ± 0.037 |
| K7EIY6 and related entries (UniProt Q9BV68) | 1.02 ± 0.03 | 1.06 ± 0.024 | 1 ± 0.041 | 1.01 ± 0.024 | 0.968 ± 0.016 | 0.975 ± 0.017 |
| H7C1U8 and related entries (UniProt Q9BUR5) | 1.05 ± 0.025 | 1.02 ± 0.016 | 1.04 ± 0.038 | 0.99 ± 0.043 | 1.04 ± 0.041 | 0.957 ± 0.081 |
| J3KQL8 and related entries (UniProt Q9BQE5) | 0.968 ± 0.02 | 0.98 ± 0.049 | 0.981 ± 0.036 | 0.959 ± 0.026 | 0.962 ± 0.031 | 0.952 ± 0.038 |
| H0YL22 and related entries (UniProt Q9Y375) | 1 ± 0.023 | 0.988 ± 0.047 | 0.987 ± 0.038 | 0.953 ± 0.025 | 0.948 ± 0.032 | 0.965 ± 0.026 |
| J3KNI1 and related entries (UniProt Q9H9E3) | 0.974 ± 0.015 | 0.967 ± 0.032 | 0.977 ± 0.047 | 0.95 ± 0.028 | 0.947 ± 0.059 | 0.943 ± 0.039 |
| I3L0N3 and related entries (UniProt P46459) | 0.956 ± 0.025 | 0.902 ± 0.091 | 0.934 ± 0.034 | 0.913 ± 0.02 | 0.917 ± 0.046 | 0.914 ± 0.08 |
| J3KTD6 and related entries (UniProt Q96GD4) | 1.022 ± 0.003 | 1.016 ± 0.01 | 1 ± 0.011 | 1.05 ± 0.028 | 1.07 ± 0.065 | 1.08 ± 0.11 |
| G5E9G0 and related entries (UniProt P39023) | 0.939 ± 0.073 | 0.905 ± 0.1 | 0.899 ± 0.11 | 0.867 ± 0.096 | 0.786 ± 0.036 | 0.875 ± 0.14 |
| G8JLB3 and related entries (UniProt Q9Y606) | 0.9809 ± 0.0094 | 0.948 ± 0.058 | 1 ± 0.018 | 0.986 ± 0.009 | 0.989 ± 0.019 | 0.994 ± 0.033 |

Some of the entries above, reformatted.
Target	NP40-soluble protein abundance (concentration: 1mM)	NP40-soluble protein abundance (concentration: 2mM)	NP40-soluble protein abundance (concentration: 4mM)	NP40-soluble protein abundance (concentration: 6mM)	NP40-soluble protein abundance (concentration: 8mM)	NP40-soluble protein abundance (concentration: 10mM)
I3L0N3 and related entries (UniProt P46459)	0.956 ± 0.025	0.902 ± 0.091	0.934 ± 0.034	0.913 ± 0.02	0.917 ± 0.046	0.914 ± 0.08
J3KTD6 and related entries (UniProt Q96GD4)	1.022 ± 0.003	1.016 ± 0.01	1 ± 0.011	1.05 ± 0.028	1.07 ± 0.065	1.08 ± 0.11
